The target of this assay is GABAB receptor subunit GABABR1 (rat (endogenous in adult cortex)) (UniProt Q9Z0U4). The experiment in a line: affinity purification with mass spectrometry; sheep anti-GABABR1 antibody on synaptic membranes of adult rat cortex solubilised in 50 mM Tris-HCl pH 7.4, 1% sodium deoxycholate; Protein G Sepharose, 4°C; gel bands, LC-MS/MS; sheep IgG control; three independent isolates.

Sequences of proteins named here, by UniProt entry; tags and fusion partners are left off. Residues count along the entry.
UniProt Q9Z0U4, residues 20-960: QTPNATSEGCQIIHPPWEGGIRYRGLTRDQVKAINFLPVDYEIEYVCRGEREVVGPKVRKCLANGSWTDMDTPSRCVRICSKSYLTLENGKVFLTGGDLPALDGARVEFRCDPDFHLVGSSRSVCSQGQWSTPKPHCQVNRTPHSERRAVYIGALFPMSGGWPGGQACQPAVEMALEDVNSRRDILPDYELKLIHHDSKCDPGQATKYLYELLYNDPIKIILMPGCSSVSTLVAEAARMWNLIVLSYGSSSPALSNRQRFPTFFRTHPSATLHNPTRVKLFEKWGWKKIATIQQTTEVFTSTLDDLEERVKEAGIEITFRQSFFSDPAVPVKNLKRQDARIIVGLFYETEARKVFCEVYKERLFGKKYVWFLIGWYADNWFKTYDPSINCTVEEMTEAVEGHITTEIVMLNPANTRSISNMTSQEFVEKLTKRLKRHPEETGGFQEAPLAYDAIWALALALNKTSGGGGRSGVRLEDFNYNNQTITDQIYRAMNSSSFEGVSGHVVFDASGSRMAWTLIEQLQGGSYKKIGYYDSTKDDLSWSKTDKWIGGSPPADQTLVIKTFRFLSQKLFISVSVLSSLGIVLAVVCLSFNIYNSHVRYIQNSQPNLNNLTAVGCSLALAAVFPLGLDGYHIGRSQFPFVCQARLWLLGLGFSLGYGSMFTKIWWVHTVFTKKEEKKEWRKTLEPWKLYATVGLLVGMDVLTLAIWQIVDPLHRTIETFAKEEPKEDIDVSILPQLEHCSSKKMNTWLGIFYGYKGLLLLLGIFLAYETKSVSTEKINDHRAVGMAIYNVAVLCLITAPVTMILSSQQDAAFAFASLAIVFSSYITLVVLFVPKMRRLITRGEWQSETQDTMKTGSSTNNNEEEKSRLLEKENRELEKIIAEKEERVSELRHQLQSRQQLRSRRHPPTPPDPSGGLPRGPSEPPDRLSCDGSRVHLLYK
UniProt Q9QUL6: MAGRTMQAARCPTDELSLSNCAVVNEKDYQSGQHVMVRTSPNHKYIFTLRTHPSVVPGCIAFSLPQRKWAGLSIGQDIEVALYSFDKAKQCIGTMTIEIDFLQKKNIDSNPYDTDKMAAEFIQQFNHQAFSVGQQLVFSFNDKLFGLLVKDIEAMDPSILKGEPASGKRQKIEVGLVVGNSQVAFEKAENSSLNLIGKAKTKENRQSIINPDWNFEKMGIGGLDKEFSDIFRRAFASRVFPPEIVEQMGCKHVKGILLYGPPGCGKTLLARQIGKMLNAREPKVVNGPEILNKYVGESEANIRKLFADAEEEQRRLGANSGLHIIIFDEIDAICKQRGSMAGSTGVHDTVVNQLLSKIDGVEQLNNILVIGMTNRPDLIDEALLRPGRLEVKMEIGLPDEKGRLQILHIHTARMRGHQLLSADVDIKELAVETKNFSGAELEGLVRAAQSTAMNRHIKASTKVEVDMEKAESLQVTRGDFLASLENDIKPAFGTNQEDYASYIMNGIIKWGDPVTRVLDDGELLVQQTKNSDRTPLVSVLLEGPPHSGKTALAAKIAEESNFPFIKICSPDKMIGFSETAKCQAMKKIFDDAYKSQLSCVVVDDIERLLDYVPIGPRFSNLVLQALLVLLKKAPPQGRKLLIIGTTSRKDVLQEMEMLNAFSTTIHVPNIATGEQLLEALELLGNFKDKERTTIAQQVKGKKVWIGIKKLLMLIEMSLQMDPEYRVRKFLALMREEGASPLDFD

Results are given in words; binding and its absence hold for the method and conditions named. Binding seen in cells or lysates may run through a third protein. These calls come from enrichment with a bait or labelling near it, and not all partners need be listed.

We go through 2 molecules from publication PMC5452337.

For the molecule “NEM-sensitive fusion protein (from UniProt Q9QUL6 1-744)”, the binding result was “binds”.

B1: solute carrier family 12, member 5 protein (SLC12A5), potassium-chloride cotransporter KCC2 (protein, UniProt Q63633 1-1139)
chain: MSRRFTVTSLPPAASAASADPESRRHSVADPRRLPREDVKGDGNPKESSPFINSTDTEKGREYDGRNMALFEEEMDTSPMVSSLLSGLANYTNLPQGSKEHEEAENNEGGKKKPVQAPRMGTFMGVYLPCLQNIFGVILFLRLTWVVGIAGIMESFCMVFICCSCTMLTAISMSAIATNGVVPAGGSYYMISRSLGPEFGGAVGLCFYLGTTFAGAMYILGTIEILLAYLFPAMAIFKAEDASGEAAAMLNNMRVYGTCVLTCMATVVFVGVKYVNKFALVFLGCVILSILAIYAGVIKSAFDPPNFPICLLGNRTLSRHGFDVCAKLAWEGNETVTTRLWGLFCSSRLLNATCDEYFTRNNVTEIQGIPGAASGLIKENLWSSYLTKGVIVERRGMPSVGLADGTPVDMDHPYVFSDMTSYFTLLVGIYFPSVTGIMAGSNRSGDLRDAQKSIPTGTILAIATTSAVYISSVVLFGACIEGVVLRDKFGEAVNGNLVVGTLAWPSPWVIVIGSFFSTCGAGLQSLTGAPRLLQAISRDGIVPFLQVFGHGKANGEPTWALLLTACICEIGILIASLDEVAPILSMFFLMCYMFVNLACAVQTLLRTPNWRPRFRYYHWTLSFLGMSLCLALMFICSWYYALVAMLIAGLIYKYIEYRGAEKEWGDGIRGLSLSAARYALLRLEEGPPHTKNWRPQLLVLVRVDQDQNVVHPQLLSLTSQLKAGKGLTIVGSVLEGTFLDNHPQAQRAEESIRRLMEAEKVKGFCQVVISSNLRDGVSHLIQSGGLGGLQHNTVLVGWPRNWRQKEDHQTWRNFIELVRETTAGHLALLVTKNVSMFPGNPERFSEGSIDVWWIVHDGGMLMLLPFLLRHHKVWRKCKMRIFTVAQMDDNSIQMKKDLTTFLYHLRITAEVEVVEMHESDISAYTYEKTLVMEQRSQILKQMHLTKNEREREIQSITDESRGSIRRKNPANTRLRLNVPEETACDNEEKPEEEVQLIHDQSAPSCPSSSPSPGEEPEGEGETDPEKVHLTWTKDKSAAQKNKGPSPVSSEGIKDFFSMKPEWENLNQSNVRRMHTAVRLNEVIVNKSRDAKLVLLNMPGPPRNRNGDENYMEFLEVLTEQLDRVMLVRGGGREVITIYS
On to B1, for which the binding entry is recorded as “binds”.
